Experimental findings from the supplement of paper PMC10338343 are described below.

± gives the standard deviation. The entries are a selection whose mix differs from that of the whole data set. Many of these values have a large error.

The test concerns MIWI (PIWIL1) piRISC loaded with L1MC piRNA (30 nt). Description: pre-steady-state target cleavage rate (min^-1); MIWI and MILI are mouse PIWI proteins and EfPiwi is from a freshwater sponge; tags in brackets are library labels; higher = faster piRNA-guided slicing of the target. To be noted: guide: L1MC piRNA 5'p-UAACUAAAUACUAUGCAAGCUGUAGGUCCU
The procedure, abridged:
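Cleave-'n-Seq measured uncleaved targets by sequencing after a transcribed, DNA-blocked target RNA library […] was mixed with 1 nM active affinity-purified piRISC holding one synthetic guide, with or without 500 nM GTSF1 partner protein, at 33 °C in HEPES–potassium acetate buffer for 0–8 or 0–960 min. Counts were normalised to depth and to weakly complementary targets, three trials were pooled, and k3 was capped at 0.0001 min^-1. A burst-and-steady-state fit gave the pre-steady-state cleavage rate.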

[1] abbreviates: auxiliary factor: 500 nM mouse GTSF1.
Where [2] appears, read: auxiliary factor: none (no GTSF1).
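Also: 1 nM active piRISC with 0.1 nM target library at 33 °C single turnover.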

Turning to UGGACGAUCAGCUUGCAUAGUAUUUAGUUA, the “pre-steady-state target cleavage rate” value under setting [1] amounted to 1.47 ± 0.071 and the “pre-steady-state target cleavage rate” value under setting [2] was determined as 0.0852 ± 0.016.
As to UCCUGGUCCAGCUUGCAUAGUAUUUAGUUA, the “pre-steady-state target cleavage rate” value reads like this: under setting [1], 0.717 ± 0.055; under setting [2], 0.0383 ± 0.0079.
The like results for UCCUGGAUGUCGAUGCAUAGUAUUUAUUA were, in that order, 0.00059 ± 0.021 and 0.000686 ± 0.0094.
For AGCACCUAGAGCUUGCAUAGUAUUUAGUUA, the “pre-steady-state target cleavage rate” value runs as follows: under setting [1], 1.47 ± 0.37; under setting [2], 0.00468 ± 0.0035.
Take UCGACCACAGCUUGCAUAGUAUUUAGUUA: the “pre-steady-state target cleavage rate” value under setting [1] was determined as 1.22 ± 0.051 and the “pre-steady-state target cleavage rate” value under setting [2] was found to be 0.0643 ± 0.011.
The like results for AGCAGCUACAGCUUGCAUAGUAUUUAGUUA were, in that order, 1.37 ± 0.067 and 0.079 ± 0.016.
The like results for UCGACGUACAGCUUGCAUAGUAUUUAGAAA were, in that order, 0.288 ± 0.026 and 0.0106 ± 0.0026.
The like results for UCCACCUACAGCUUUGCAUAGUAUUUAGUUA were, in that order, 0.885 ± 0.054 and 0.0278 ± 0.0062.
As for UCGACCUACAGCUUGCGAUAGUAUUUAGUUA, the “pre-steady-state target cleavage rate” value is, setting by setting: under setting [1], 0.0797 ± 0.02; under setting [2], 0.00114 ± 0.0072.
The like results for UCGAGGUACAGCUUGCAUAGUAUUUAGUUA were, in that order, 1.04 ± 0.066 and 0.0604 ± 0.0095.
The like results for UGGACCUACAGCUUGGAUAGUAUUUAGUAA were, in that order, 0.851 ± 0.062 and 0.0355 ± 0.006.
In the case of AAGACCUACAGCUUGCAUAGUAUUUAGUUA, the “pre-steady-state target cleavage rate” value stood at 1.69 ± 0.062 under setting [1] and 0.0921 ± 0.015 under setting [2].
Take UGGAGCAACAGCUUGCAUAGUAUUUAGUUA: the “pre-steady-state target cleavage rate” value reads like this: under setting [1], 1.39 ± 0.044; under setting [2], 0.0851 ± 0.016.
Take UCGACCUACAGCUUGCUUAGUAUUUAGUAA: the “pre-steady-state target cleavage rate” value is, setting by setting: under setting [1], 1.02 ± 0.068; under setting [2], 0.0176 ± 0.005.
The like results for UCCUGGAUGUCGAUGCAUAGUAUAUUAGUUA were, in that order, 0.000708 ± 0.015 and 0.00127 ± 0.0062.
On the same counts, the results for UGGACCUACAGCUUGCUUACUAUUUAGUUA are 0.493 ± 0.031 and 0.0127 ± 0.0038.
The like results for UGGACCAACAGCUUCCAUAGUAUUUAGUUA were, in that order, 0.0364 ± 0.0068 and 0.00383 ± 0.0016.
Regarding UGGACCUACAGCUUGCGUAGUAUUUAGUUA, the “pre-steady-state target cleavage rate” value amounted to 1.79 ± 0.11 under setting [1] and 0.0538 ± 0.01 under setting [2].
Turning to UGGACCUACAGCUUGACAUAGUAUUUAGUUA, the “pre-steady-state target cleavage rate” value is, setting by setting: under setting [1], 0.986 ± 0.1; under setting [2], 0.00706 ± 0.0031.
The like results for AGGACUCUACAGCUUGCAUAGUAUUUAGUUA were, in that order, 1.28 ± 0.069 and 0.0617 ± 0.011.
